Data from patent publication US20170356921A1.
Changes are numbered by the printed parent chain. No constants are given. Whether binding was seen depends on the method and setting. Some entries that bind do so weakly or less than the wild type. Each block holds one binder with its values, some of them ahead of it.

Amino acid sequences for entries named in this document (tags omitted). A change or cut given only in a name is not applied to a line headed by its entry.
UniProt P80188: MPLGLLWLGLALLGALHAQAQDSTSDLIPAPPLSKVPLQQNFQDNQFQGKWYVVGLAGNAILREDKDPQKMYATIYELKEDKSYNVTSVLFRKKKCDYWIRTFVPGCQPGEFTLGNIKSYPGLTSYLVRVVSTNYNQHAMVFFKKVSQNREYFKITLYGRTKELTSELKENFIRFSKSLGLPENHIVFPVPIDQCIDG

Key:
[1] = biological target: Human neutrophil lipocalin (HNL) (human) (UniProt P80188); test: K200 chemical cross-linking, High-Mass MALDI ToF MS of antibody/antigen mix
[2] = biological target: Human neutrophil lipocalin (HNL) (human) (UniProt P80188); test: competition with pepsin peptides of HNL, cross-linking and High-Mass MALDI MS

binding [1]: binds
binding [2]: binds
B1: Anti-HNL MAB2 (antibody, V domains shown)
VH: EVQLEESGPGLVAPSQSLSITCTISGFSLTSYGIHWLRQPPGKDLEWLVVIWGDGSTTSNSALKSRLSISKDNSKSQVFFKMSGLQTDDTAIYYCARHRYSDYHAMDYWGPGTSVTVS
VL: DIVLTQSTSSLSVSLGDRVTINCRASQDISNYLNWYQEKPDGTVKLLIYFTSRLHSGVPSRFSGSGSGTDYSLTITNLEQEDIATYFCQQGNTLPWTFGGGTKLEIKR

binding [1]: binds
binding [2]: binds
B2: Anti-HNL MAB3 (antibody, V domains shown)
VH: EVKLQESGPGLVAPSQSLSITCTISGFSLTSYGIHWLRQPPGKDLEWLVVIWGDGSTTSNSALKSRLSISKDNSKSQVFFKMSGLQTDDTAIYYCARHRYSDYHAMDYWGPGTSVTVSS
VL: B1 VL with S7T

binding [1]: binds
binding [2]: binds
B3: Anti-HNL MAB1 (antibody, V domains shown)
VH: VQLQESGPDLVAPSQSLSITCTVSGFSLSSYGVHWVRQPPGKGLEWLIVMWSDGSTTSNSALKSRLSISKDNSKSQVFLKVNSLQSDDTAIYYCARHYGYFTMDYWGQGTSVTVSS
VL: DIVMTQTPATLSVTPGDSVSLSCRASQSIITDLHWYQQRSHESPRLLIKSASQSISGIPSRFSGSGSGTDFTLTINSVETEDFGMYFCQQSNSWPLTFGAGTKLELKR
